Source: publication doi:10.1101/679431 (bioRxiv, 2019)
Numbering of substitutions follows the chain as printed. Names and notes keep the numbering of the source. These are yes or no findings as the source states them, for the method shown. Some binding calls cover weakened binding; strength is not graded here. Sequences can lack the tags named with a protein.

B1: WT TRAP1 with C-terminal HA tag (pcDNA3.1 (+) MTS-HA vector) (protein, UniProt Q12931 60-704)
chain: STQTAEDKEEPLHSIISSTESVQGSTSKHEFQAETKKLLDIVARSLYSEKEVFIRELISNASDALEKLRHKLVSDGQALPEMEIHLQTNAEKGTITIQDTGIGMTQEELVSNLGTIARSGSKAFLDALQNQAEASSKIIGQFGVGFYSAFMVADRVEVYSRSAAPGSLGYQWLSDGSGVFEIAEASGVRTGTKIIIHLKSDCKEFSSEARVRDVVTKYSNFVSFPLYLNGRRMNTLQAIWMMDPKDVREWQHEEFYRYVAQAHDKPRYTLHYKTDAPLNIRSIFYVPDMKPSMFDVSRELGSSVALYSRKVLIQTKATDILPKWLRFIRGVVDSEDIPLNLSRELLQESALIRKLRDVLQQRLIKFFIDQSKKDAEKYAKFFEDYGLFMREGIVTATEQEVKEDIAKLLRYESSALPSGQLTSLSEYASRMRAGTRNIYYLCAPNRHLAEHSPYYEAMKKKDTEVLFCFEQFDELTLLHLREFDKKKLISVETDIVVDHYKEEKFEDRSPAAECLSEKETEELMAWMRNVLGSRVTNVKVTLRLDTHPAMVTVLEMGAARHFLRMQQLAKTQEERAQLLQPTLEINPRHALIKKLNQLRASEPGLAQLLVDQIYENAMIAAGLVDDPRAMVGRLNELLVKALERH
B2: TRAP1 double point mutant E115A/R402A with C-terminal HA tag (protein, UniProt Q12931 60-704)
chain: B1 chain with E56A, R343A

Columns and labels:
[1] = target: WT TRAP1 with C-terminal HA tag (pcDNA3.1 (+) MTS-HA vector) (human) (UniProt Q12931); assay: native gel or EMSA
[2] = target: TRAP1 double point mutant E115A/R402A with C-terminal HA tag (human) (UniProt Q12931); assay: native gel or EMSA

Binder	binding [1]	binding [2]
B1	binds	–
B2	–	binds
